PubChem BioAssay AID328 (DTP/NCI, 2004)
The list does not hold the whole screen: it gathers tests that were run many times, whatever their T/C, doses with no T/C, and many T/C values between a quarter and a half above the control. Other doses and runs of a compound stand elsewhere. T/C: endpoint of the treated group in % of that of the vehicle group. Some doses have a count of surviving animals in place of a T/C: the source files T/C as zero there, which appears to mark a toxic dose or a test without result, not a measured value. Some doses without a T/C left all or most animals alive at the check, yet need not have been tolerated: survival well below the control is almost never listed, so the zero probably covers shortened survival too. Survivors were counted at the toxicity check, usually on the fifth day, unless a day is given; later deaths do not show. Schedules are NCI's codes, read here as Q, the interval in days (D) or hours (H), X, the number of doses. For survival time, the PubChem record calls one and a half times the control and up active, and a quarter to a half above the control has no call in these data; cut-offs in other NCI protocols can differ. Some entries hold several experiments; the values are given in rising order. Some T/C values are followed by the survivors on the day toxicity was checked, most often the fifth; without a count, all were alive then.

System: BDF1 mice, P388 leukemia ip, median survival T/C
Experiment: NCI In Vivo Anticancer Drug Screen. Data for tumor model P388 Leukemia (intraperitoneal) in B6D2F1 (BDF1) mice
Conditions: T/C endpoint: median survival time, higher T/C = longer survival
Summary of the method: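 Each value expresses how treatment altered survival: treated-mouse outcome over vehicle-mouse outcome, both groups bearing the transplanted tumour.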

[1] = dose: 50.0 mg/kg/injection, schedule: Q01DX009 (ip), vehicle: Klucel (hydroxypropylcellulose) (HPC)
[2] = dose: 50.0 mg/kg/injection, schedule: Q01DX009 (ip), vehicle: saline with Tween-80
[3] = dose: 50.0 mg/kg/injection, schedule: Q04DX003 (ip), vehicle: saline
[4] = dose: 100.0 mg/kg/injection, schedule: Q01DX009 (ip), vehicle: saline
[5] = dose: 400.0 mg/kg/injection, schedule: Q01DX009 (ip), vehicle: water
[6] = dose: 200.0 mg/kg/injection, schedule: Q01DX009 (ip), vehicle: saline
[7] = dose: 100.0 mg/kg/injection, schedule: Q01DX009 (ip), vehicle: Klucel (hydroxypropylcellulose) (HPC)
[8] = dose: 200.0 mg/kg/injection, schedule: Q01DX009 (ip), vehicle: Klucel (hydroxypropylcellulose) (HPC)
[9] = dose: 400.0 mg/kg/injection, schedule: Q01DX009 (ip), vehicle: Klucel (hydroxypropylcellulose) (HPC)
[10] = dose: 100.0 mg/kg/injection, schedule: Q01DX009 (ip), vehicle: saline with Tween-80
[11] = dose: 200.0 mg/kg/injection, schedule: Q01DX009 (ip), vehicle: saline with Tween-80

COc1cc2cc3c4cc(OC)c(OC)cc4cc[n+]3c(C)c2cc1OC
T/C (dose: 16.0 mg/kg/injection, schedule: Q03HX008 (ip), vehicle: saline): 136 % of control | T/C (dose: 16.0 mg/kg/injection, schedule: Q03HX024 (ip), vehicle: saline): 145 % of control | T/C (dose: 25.0 mg/kg/injection, schedule: Q01DX009 (ip), vehicle: Klucel (hydroxypropylcellulose) (HPC)): 125 % of control [5 of 6 alive] | T/C (dose: 25.0 mg/kg/injection, schedule: Q01DX009 (ip), vehicle: saline): 146 % of control | T/C (dose: 25.0 mg/kg/injection, schedule: Q04DX003 (ip), vehicle: saline): 142 % of control | T/C (dose: 37.5 mg/kg/injection, schedule: Q04DX003 (ip), vehicle: saline): 145 % of control [9 of 10 alive] | T/C [1]: 145 % of control | T/C [2]: 131 % of control | T/C (dose: 50.0 mg/kg/injection, schedule: Q04DX002 (ip), vehicle: saline): 146 % of control | T/C [3]: 146 % of control | T/C (dose: 64.0 mg/kg/injection, schedule: Q03HX008 (ip), vehicle: saline): 145 % of control | T/C [4]: 146 % of control | T/C (dose: 100.0 mg/kg/injection, schedule: Q04DX002 (ip), vehicle: saline): 139 % of control | T/C (dose: 100.0 mg/kg/injection, schedule: Q04DX003 (ip), vehicle: saline): 136 % of control | T/C (dose: 128.0 mg/kg/injection, schedule: Q01DX001 (ip), vehicle: saline): 140 % of control | T/C (dose: 128.0 mg/kg/injection, schedule: Q04DX003 (ip), vehicle: saline): 145 % of control | T/C (dose: 128.0 mg/kg/injection, schedule: Q08DX002 (ip), vehicle: saline): 145 % of control | T/C (dose: 200.0 mg/kg/injection, schedule: Q04DX002 (ip), vehicle: saline): 136 % of control | T/C (dose: 256.0 mg/kg/injection, schedule: Q01DX001 (ip), vehicle: saline): 145 % of control | T/C (dose: 256.0 mg/kg/injection, schedule: Q01DX009 (ip), vehicle: saline): 140 % of control | T/C (dose: 256.0 mg/kg/injection, schedule: Q03HX008 (ip), vehicle: saline): 140 % of control [6 of 8 alive] | T/C (dose: 256.0 mg/kg/injection, schedule: Q04DX003 (ip), vehicle: saline): 140 % of control | T/C (dose: 400.0 mg/kg/injection, schedule: Q01DX009 (ip), vehicle: saline with Tween-80): 127 and 145 % of control | T/C (dose: 400.0 mg/kg/injection, schedule: Q01DX009 (ip), vehicle: saline): 136 % of control | survivor count [5]: 5 of 10 | survivor count (dose: 512.0 mg/kg/injection, schedule: Q01DX009 (ip), vehicle: saline): 6 of 8 | T/C (dose: 512.0 mg/kg/injection, schedule: Q04DX003 (ip), vehicle: saline): 136 % of control | survivor count (dose: 1024.0 mg/kg/injection, schedule: Q01DX009 (ip), vehicle: saline): 7 of 8 | T/C (dose: 1024.0 mg/kg/injection, schedule: Q04DX003 (ip), vehicle: saline): 136 % of control | survivor count (dose: 2048.0 mg/kg/injection, schedule: Q01DX001 (ip), vehicle: saline): 7 of 8 | survivor count (dose: 2048.0 mg/kg/injection, schedule: Q08DX002 (ip), vehicle: saline): 8 of 8

CC1(c2ccc(N(CCCl)CCCl)cc2)NC(=O)NC1=O (configuration not stated)
T/C [1]: 149 % of control [5 of 6 alive]

COC1=CCC23C(=O)C=CC(=O)C2(C1)C(=O)c1ccccc1C3=O (configuration not stated)
T/C (dose: 25.0 mg/kg/injection, schedule: Q04DX003 (ip), vehicle: saline with Tween-80): 126 % of control | survivor count (dose: 50.0 mg/kg/injection, schedule: Q04DX003 (ip), vehicle: saline with Tween-80): 4 of 6

C#CCOCC(O)CO (configuration not stated)
survivor count (dose: 200.0 mg/kg/injection, schedule: Q04DX003 (ip), vehicle: water): 2 of 6 | survivor count [5]: 0 of 6

NC1CONC1=O (configuration not stated)
survivor count [6]: 8 of 8

O=[N+]([O-])c1ccc(N2CCN=N2)cc1
survivor count (dose: 100.0 mg/kg/injection, schedule: Q01DX010 (ip), vehicle: saline): 2 of 6 | survivor count (dose: 200.0 mg/kg/injection, schedule: Q01DX010 (ip), vehicle: saline): 0 of 6

Nc1nc(N)c2cc(CNc3ccc(C(=O)NC(C(=O)O)C(=O)O)cc3)ccc2n1
T/C (dose: 0.06 mg/kg/injection, schedule: Q01DX009 (ip), vehicle: saline): 131 % of control | T/C (dose: 0.1 mg/kg/injection, schedule: Q01DX009 (ip), vehicle: saline): 145 % of control

COc1ccc2ccccc2c1C1NC(=O)c2ccccc2N1 (configuration not stated)
T/C [7]: 125 and 133 % of control | T/C [8]: 125 % of control | survivor count [9]: 4 of 6

N#Cc1cn(C2OC(CO)C(O)C2O)c2nc(Cl)nc(N)c12 (configuration not stated)
T/C (dose: 3.12 mg/kg/injection, schedule: Q04DX003 (ip), vehicle: saline): 140 % of control | survivor count [3]: 6 of 6

Cc1ccc(S(=O)(=O)OCC(CO)(COS(=O)(=O)c2ccc(C)cc2)[N+](=O)[O-])cc1
survivor count [9]: 3 of 6

Cc1ccc(S(=O)(=O)Nc2ccc([N+](=O)[O-])cc2[N+](=O)[O-])cc1
survivor count [10]: 3 of 6

COc1cc2c[n+](C)c3c4cc5c(cc4ccc3c2cc1OC)OCO5 (tested in a mixture with another compound)
T/C (dose: 2.5 mg/kg/injection, schedule: Q01DX009 (ip), vehicle: water): 133 % of control | T/C (dose: 5.0 mg/kg/injection, schedule: Q01DX009 (ip), vehicle: water): 144 % of control | T/C (dose: 40.0 mg/kg/injection, schedule: Q01DX009 (ip), vehicle: saline): 139 % of control | survivor count (dose: 80.0 mg/kg/injection, schedule: Q01DX009 (ip), vehicle: saline): 8 of 8 | survivor count (dose: 80.0 mg/kg/injection, schedule: Q01DX009 (ip), vehicle: water): 4 of 8 | survivor count [4]: 5 of 6 | survivor count (dose: 120.0 mg/kg/injection, schedule: Q01DX009 (ip), vehicle: saline): 1 of 6 | survivor count (dose: 240.0 mg/kg/injection, schedule: Q01DX009 (ip), vehicle: saline): 0 of 6

O=C(NC(CSC(c1ccccc1)(c1ccccc1)c1ccccc1)C(=O)O)OCc1ccccc1 (configuration not stated)
T/C [4]: 125 % of control | T/C [6]: 130 % of control

CC(C)S.[Cu+2]
survivor count [2]: 1 of 6 | survivor count [10]: 0 of 6 | survivor count [11]: 0 of 6

CN1C(=O)CC2(CCN(CCCC(=O)c3ccc(F)cc3)CC2)C1=O
survivor count [7]: 4 of 6 | survivor count [8]: 0 of 6

CN(C)CCN1C(=O)c2cccc3cc([N+](=O)[O-])cc(c23)C1=O
survivor count (dose: 12.5 mg/kg/injection, schedule: Q01DX009 (ip), vehicle: saline with Tween-80): 4 of 6

C[n+]1ccc(Nc2ccc(NC(=O)c3ccc(Nc4cc[n+](C)c5ccc([N+](=O)[O-])cc45)cc3[N+](=O)[O-])cc2)cc1
T/C (dose: 100.0 mg/kg/injection, schedule: Q04DX003 (ip), vehicle: saline, evaluated on day 20): 145 % of control [5 of 6 alive] | T/C (dose: 100.0 mg/kg/injection, schedule: Q04DX003 (ip), vehicle: saline, evaluated on day 32): 138 % of control

O[C@H](CN1CC1)[C@@H](O)CN1CC1
survivor count (dose: 1000.0 micrograms/kg/injection, schedule: Q01DX010 (ip), vehicle: saline): 6 of 6

C[N+]1(C)N=C([O-])N(c2ccccc2[N+](=O)[O-])C1=O
survivor count [10]: 5 of 6 | survivor count [11]: 5 of 6

Oc1ccc(Cl)cc1Sc1cc(Cl)ccc1O
survivor count (dose: 100.0 mg/kg/injection, schedule: Q01DX001 (ip), vehicle: saline with Tween-80): 3 of 6 | survivor count (dose: 200.0 mg/kg/injection, schedule: Q01DX001 (ip), vehicle: saline with Tween-80): 0 of 6 | survivor count (dose: 400.0 mg/kg/injection, schedule: Q01DX001 (ip), vehicle: saline with Tween-80): 0 of 6
